This test concerns P388 leukemia ip, CD2F1 mice, survival T/C. In words: NCI In Vivo Anticancer Drug Screen. Data for tumor model P388 Leukemia (intraperitoneal) in CD2F1 (CDF1) mice. The settings on record: T/C endpoint: median survival time, higher T/C = longer survival.
The mark [1] stands for this setting: dose: 200.0 mg/kg/injection, schedule: Q01DX009 (ip), vehicle: Klucel (hydroxypropylcellulose) (HPC).
Where [2] appears, read: dose: 100.0 mg/kg/injection, schedule: Q01DX005 (ip), vehicle: saline.
[3] abbreviates: dose: 200.0 mg/kg/injection, schedule: Q01DX005 (ip), vehicle: saline.
Where [4] appears, read: dose: 120.0 mg/kg/injection, schedule: Q01DX005 (ip), vehicle: Klucel (hydroxypropylcellulose) (HPC).
Where [5] appears, read: dose: 240.0 mg/kg/injection, schedule: Q01DX005 (ip), vehicle: Klucel (hydroxypropylcellulose) (HPC).
The mark [6] stands for this setting: dose: 50.0 mg/kg/injection, schedule: Q01DX009 (ip), vehicle: saline.

The list is a part of this screen's results and no random one: it is rich in T/C values a quarter to a half above the control, in often repeated tests (any T/C) and in doses without a T/C. Other doses and runs of a compound stand elsewhere. T/C is the treated group as % of the vehicle group. Some doses have a count of surviving animals in place of a T/C: the source holds a T/C of zero for them, seemingly a mark for toxic or unscored doses. Some survivor counts are full or nearly so, which does not show that the dose was tolerated: the source hardly ever lists a survival T/C far under the control, and the zero likely stands for such cases as well. Survivors were counted at the toxicity check, usually on the fifth day, unless a day is given; later deaths do not show. Schedules are NCI's codes, read here as Q, the interval in days (D) or hours (H), X, the number of doses. Some entries were tested several times; their values stand side by side, smallest first. Where survival is the endpoint, the PubChem record calls one and a half times the control and up active, and a quarter to a half above the control has no call in these data; cut-offs in other NCI protocols can differ.

Consider `COc1cccc2c1C(=O)c1c(O)c3c(c(O)c1C2=O)C[C@@](O)(/C(C)=N\NC(=O)CO)C[C@@H]3OC1CC(N)C(O)C(C)O1` (some centres not stated), for which the T/C reads like this: (dose: 0.25 mg/kg/injection, schedule: Q01DX009 (ip), vehicle: water) 126 % of control; (dose: 0.44 mg/kg/injection, schedule: Q04DX003 (ip), vehicle: saline) 127 % of control; (dose: 0.5 mg/kg/injection, schedule: Q01DX009 (ip), vehicle: water) 136 % of control; (dose: 0.66 mg/kg/injection, schedule: Q01DX009 (ip), vehicle: saline) 139 % of control; (dose: 0.66 mg/kg/injection, schedule: Q04DX003 (ip), vehicle: saline) 140 % of control; (dose: 0.88 mg/kg/injection, schedule: Q04DX003 (ip), vehicle: saline) 145 % of control. For the same compound, the T/C runs as follows: (dose: 1.0 mg/kg/injection, schedule: Q01DX009 (ip), vehicle: water) 144 % of control; (dose: 2.5 mg/kg/injection, schedule: Q04DX003 (ip), vehicle: water) 126 % of control; (dose: 5.0 mg/kg/injection, schedule: Q04DX003 (ip), vehicle: water) 135 % of control; (dose: 10.0 mg/kg/injection, schedule: Q04DX003 (ip), vehicle: water, evaluated on day 30) 138 % of control; (dose: 10.0 mg/kg/injection, schedule: Q04DX003 (ip), vehicle: water, evaluated on day 45) 132 % of control; (dose: 20.0 mg/kg/injection, schedule: Q04DX003 (ip), vehicle: water, evaluated on day 30) 143 % of control. The T/C was 125 % of control (dose: 20.0 mg/kg/injection, schedule: Q04DX003 (ip), vehicle: water, evaluated on day 45); 135 % of control (dose: 40.0 mg/kg/injection, schedule: Q04DX003 (ip), vehicle: water); 135 % of control (dose: 88.0 micrograms/kg/injection, schedule: Q01DX009 (ip), vehicle: saline); 133 % of control (dose: 133.0 micrograms/kg/injection, schedule: Q01DX009 (ip), vehicle: saline); 133 % of control (dose: 200.0 micrograms/kg/injection, schedule: Q01DX009 (ip), vehicle: saline); 146 % of control (dose: 300.0 micrograms/kg/injection, schedule: Q01DX009 (ip), vehicle: saline). For the same compound, the survivor count (dose: 12.5 mg/kg/injection, schedule: Q01DX009 (ip), vehicle: water) is 3 of 6 and the survivor count (dose: 25.0 mg/kg/injection, schedule: Q01DX009 (ip), vehicle: water) is 1 of 6.
Regarding `COc1cc(C=Nc2ccc(-n3ccnc3C)cc2)ccc1N(CCCl)CCCl`, the T/C (dose: 2.5 mg/kg/injection, schedule: Q01DX009 (ip), vehicle: Klucel (hydroxypropylcellulose) (HPC)) was 136 % of control.
On to `CCOC(=O)/C=C(\NC1CC(OC2C[C@](O)(C(C)=O)Cc3c(O)c4c(c(O)c32)C(=O)c2c(OC)cccc2C4=O)OC(C)C1O)C(=O)OCC` (some centres not stated), for which the T/C reads like this: (dose: 25.0 mg/kg/injection, schedule: Q04DX003 (ip), vehicle: saline with Tween-80) 132 % of control; (dose: 50.0 mg/kg/injection, schedule: Q04DX003 (ip), vehicle: saline with Tween-80) 148 % of control; (dose: 100.0 mg/kg/injection, schedule: Q04DX003 (ip), vehicle: saline with Tween-80) 133 % of control.
With `O=C1c2c(O)cccc2C(C2OC(CO)C(O)C(O)C2O)c2cc(CO)cc(O)c21` (configuration not stated), the survivor count (dose: 200.0 mg/kg/injection, schedule: Q01DX005 (ip), vehicle: Klucel (hydroxypropylcellulose) (HPC)) is 1 of 6 and 3 of 6.
For `COc1ccc(C(OC)C2CCCCC2N2CCCCC2)cc1` (configuration not stated), the survivor count is 2 of 6 (dose: 3.13 mg/kg/injection, schedule: Q01DX009 (ip), vehicle: Klucel (hydroxypropylcellulose) (HPC)); 0 of 6 (dose: 6.25 mg/kg/injection, schedule: Q01DX009 (ip), vehicle: Klucel (hydroxypropylcellulose) (HPC)); 0 of 6 (dose: 12.5 mg/kg/injection, schedule: Q01DX009 (ip), vehicle: Klucel (hydroxypropylcellulose) (HPC)); 0 of 6 (dose: 25.0 mg/kg/injection, schedule: Q01DX009 (ip), vehicle: Klucel (hydroxypropylcellulose) (HPC)); 2 of 6 (dose: 50.0 mg/kg/injection, schedule: Q01DX009 (ip), vehicle: Klucel (hydroxypropylcellulose) (HPC)); 0 of 6 (dose: 100.0 mg/kg/injection, schedule: Q01DX009 (ip), vehicle: Klucel (hydroxypropylcellulose) (HPC)). Further, the survivor count under setting [1] was 0 of 6.
Consider `C=C(CN(C)C)C(=O)c1ccc(C(=O)C(=C)CN(C)C)cc1`, for which the survivor count is, setting by setting: (dose: 6.25 mg/kg/injection, schedule: Q01DX005 (ip), vehicle: saline) 3 of 6; (dose: 12.5 mg/kg/injection, schedule: Q01DX005 (ip), vehicle: saline) 0 of 6; (dose: 25.0 mg/kg/injection, schedule: Q01DX005 (ip), vehicle: saline) 0 of 6; (dose: 50.0 mg/kg/injection, schedule: Q01DX005 (ip), vehicle: saline) 0 of 6; under setting [2], 0 of 6; under setting [3], 0 of 6.
For the compound `CCCOP(=S)(N1CC1(C)C)N1CC1(C)C` (configuration not stated), the T/C was 140 % of control (dose: 50.0 mg/kg/injection, schedule: Q01DX009 (ip), vehicle: saline with Tween-80); 135 % of control (dose: 66.0 mg/kg/injection, schedule: Q01DX009 (ip), vehicle: saline with Tween-80); 135 % of control (dose: 100.0 mg/kg/injection, schedule: Q01DX009 (ip), vehicle: saline with Tween-80).
On to `CN1CCC/C1=C\C(=O)c1ccco1`, for which the survivor count runs as follows: under setting [4], 0 of 6; under setting [5], 0 of 6.
Turning to `CN(C)c1cc(C(=O)O)nc(C(=O)O)c1`, the survivor count reads like this: (dose: 200.0 mg/kg/injection, schedule: Q01DX001 (ip), vehicle: Klucel (hydroxypropylcellulose) (HPC)) 6 of 6; (dose: 400.0 mg/kg/injection, schedule: Q01DX001 (ip), vehicle: Klucel (hydroxypropylcellulose) (HPC)) 6 of 6.
Take `CN(C)C=C1C(=O)CCCC1=O`: the survivor count (dose: 240.0 mg/kg/injection, schedule: Q01DX005 (ip), vehicle: saline) is reported as 2 of 6.
As to `Cc1nnc(SCC2=C(C(=O)O)N3C(=O)C(NC(=O)Cn4cnnn4)C3SC2)s1` (configuration not stated), the T/C by setting is: under setting [6], 94, 105, 109, 121 % of control; (dose: 100.0 mg/kg/injection, schedule: Q01DX009 (ip), vehicle: saline) 98, 100, 109, 122 % of control; (dose: 200.0 mg/kg/injection, schedule: Q01DX009 (ip), vehicle: saline) 103, 109, 114, 122 % of control.
Consider `CCCCCC(C)N` (configuration not stated), for which, under setting [6], the survivor count is given as 2 of 6.
Consider `CC(=O)OCC1(OC(=O)CC(C)C)COC(O)C2C(C=O)=CC=C21` (configuration not stated), for which the survivor count reads like this: (dose: 25.0 mg/kg/injection, schedule: Q01DX005 (ip), vehicle: Klucel (hydroxypropylcellulose) (HPC)) 5 of 6; (dose: 50.0 mg/kg/injection, schedule: Q01DX005 (ip), vehicle: Klucel (hydroxypropylcellulose) (HPC)) 0 of 6; (dose: 100.0 mg/kg/injection, schedule: Q01DX005 (ip), vehicle: Klucel (hydroxypropylcellulose) (HPC)) 0 of 6.
Take `N#C/C(=C/c1ccccc1)CBr`: the survivor count was 0 of 6 (dose: 200.0 mg/kg/injection, schedule: Q01DX001 (ip), vehicle: saline with Tween-80) and 0 of 6 (dose: 400.0 mg/kg/injection, schedule: Q01DX001 (ip), vehicle: saline with Tween-80).
In the case of `Nc1ccc(Cl)cc1C(=O)N1CCN(c2ccc([N+](=O)[O-])cn2)CC1`, the survivor count runs as follows: (dose: 60.0 mg/kg/injection, schedule: Q01DX005 (ip), vehicle: Klucel (hydroxypropylcellulose) (HPC)) 6 of 6; under setting [4], 6 of 6; under setting [5], 6 of 6.
Take `CCOc1c(Br)cc(/C=C(\C)[N+](=O)[O-])cc1OC`: under “dose: 240.0 mg/kg/injection, schedule: Q01DX005 (ip), vehicle: saline with Tween-80”, the survivor count was 4 of 6.
As to `CCCCN(CCCC)CC(CN(CC)CC)N(CC)C(=O)Nc1ccccc1` (configuration not stated), the survivor count is, setting by setting: under setting [2], 2 of 5; under setting [3], 0 of 5.
For `NC(CC(=O)O)C(=O)O` (configuration not stated), under setting [1], the survivor count was 6 of 6.

Source of the values: PubChem BioAssay AID330 (DTP/NCI, 2004).
